# The other results are listed elsewhere or left out. Repeats are few or missing, and single values can be far off.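 The apoptosis fraction was the count of cleaved-PARP antibody-stained nuclei relative to all DNA-stained nuclei, imaged in 1,536-well plates. Screening doses were set so most cells survived, and baseline and induced cleaved-PARP levels vary greatly across cell lines.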
# Experiments:
# Assay in all cases: cleaved PARP positive nuclei fraction relative to DMSO control; melanoma cells; higher = more apoptosis
# Settings in all cases: library dose: low library concentration; 72 h
# [1] = tested on: MZ2-MEL
# [2] = tested on: MeWo
# [3] = tested on: RPMI7951
# [4] = tested on: RVH-421
# [5] = tested on: SkMel28
# [6] = tested on: SkMel2
# [7] = tested on: SkMel30
# [8] = tested on: SkMel5
# [9] = tested on: UACC257
# [10] = tested on: UACC62
# [11] = tested on: WM115
# [12] = tested on: WM1716
# [13] = tested on: WM1745
# [14] = tested on: WM3526
# [15] = tested on: WM3619
# [16] = tested on: WM451Lu
SMILES,cleaved PARP positive nuclei fraction [1],cleaved PARP positive nuclei fraction [2],cleaved PARP positive nuclei fraction [3],cleaved PARP positive nuclei fraction [4],cleaved PARP positive nuclei fraction [5],cleaved PARP positive nuclei fraction [6],cleaved PARP positive nuclei fraction [7],cleaved PARP positive nuclei fraction [8],cleaved PARP positive nuclei fraction [9],cleaved PARP positive nuclei fraction [10],cleaved PARP positive nuclei fraction [11],cleaved PARP positive nuclei fraction [12],cleaved PARP positive nuclei fraction [13],cleaved PARP positive nuclei fraction [14],cleaved PARP positive nuclei fraction [15],cleaved PARP positive nuclei fraction [16]
"C[C@@H](Oc1cc(-c2cnn(C3CCNCC3)c2)cnc1N)c1c(Cl)ccc(F)c1Cl [Crizotinib] + CN(C)S(=O)(=O)c1ccc2c(c1)/C(=C/c1cc3c([nH]1)CCCC3)C(=O)N2 [SU6656] (first compound 0.2 µM, partner dose 0.4 µM)",74.5%,126%,391%,59.1%,36.3%,34.3%,211%,76.6%,96.8%,42.2%,97%,73.7%,98.1%,61.5%,91.6%,166%
"Nc1ccn([C@@H]2O[C@H](CO)[C@@H](O)C2(F)F)c(=O)n1 [gemcitabine] + CCCCCCCCCCCC1=C(O)C(=O)C=C(O)C1=O [Embelin] (first compound 0.0004 µM, partner dose 1.2 µM)",89.3%,64.2%,121%,161%,73.3%,51.8%,21.2%,158%,94.1%,78%,142%,41.9%,116%,58.3%,101%,39%
"Nc1ccn([C@@H]2O[C@H](CO)[C@@H](O)C2(F)F)c(=O)n1 [gemcitabine] + NC(=O)Nc1cc(-c2cccc(F)c2)sc1C(=O)N[C@H]1CCCNC1 [AZD7762] (first compound 0.0004 µM, partner dose 0.02 µM)",187%,58.8%,132%,73.7%,175%,91.9%,53.8%,48.3%,91.6%,87.3%,79%,284%,183%,65.9%,315%,84.3%
"CCCS(=O)(=O)Nc1ccc(F)c(C(=O)c2c[nH]c3ncc(Cl)cc23)c1F + CN(NC(=O)CC(=O)NN(C)C(=S)c1ccccc1)C(=S)c1ccccc1 [STA4783] (first compound 0.08 µM, partner dose 0.006 µM)",122%,114%,29.1%,66.6%,240%,40.3%,299%,117%,247%,495%,303%,150%,206%,126%,207%,73.4%
"Nc1ccn([C@@H]2O[C@H](CO)[C@@H](O)C2(F)F)c(=O)n1 [gemcitabine] + O=C1NC(=O)/C(=C/c2ccc(-c3ccc(F)cc3O)o2)S1 [AS252424] (first compound 0.0004 µM, partner dose 1 µM)",209%,93.2%,195%,186%,37.7%,59.7%,119%,71.4%,142%,45.2%,51.8%,47.3%,202%,69.1%,212%,254%
"Nc1nc(F)nc2c1ncn2[C@@H]1O[C@H](CO)[C@@H](O)[C@@H]1O [fludarabine] + O=C(O)c1ccc(-c2c[nH]c3ncc(-c4ccccc4)cc23)cc1C1CCCC1 [GSK650394] (first compound 0.2 µM, partner dose 0.16 µM)",111%,862%,126%,52.2%,114%,728%,360%,184%,605%,245%,171%,112%,87%,206%,109%,367%
"CN1CCN(c2ccc3nc(-c4c(N)c5c(F)cccc5[nH]c4=O)[nH]c3c2)CC1 [Dovitinib] + CC(C)CCN1c2nc(Nc3cc(F)c(O)c(F)c3)ncc2N(C)C(=O)C1C [BID1870] (first compound 0.1 µM, partner dose 0.2 µM)",116%,47.4%,66.3%,106%,54.5%,164%,110%,141%,40.3%,131%,286%,171%,107%,76.4%,90.6%,103%
"O=C(O)c1ccc2c(c1)nc(Nc1cccc(Cl)c1)c1ccncc12 + Cc1cc(N2CCOCC2)cc2[nH]c(-c3c(NC[C@@H](O)c4cccc(Cl)c4)cc[nH]c3=O)nc12 [BMS536924] (first compound 0.4 µM, partner dose 0.2 µM)",163%,76%,83.6%,194%,125%,137%,97%,43.1%,138%,62.4%,45.2%,158%,220%,62%,115%,53.3%
"O=C(O)[C@@H]1[O][Sb](=[O])([O][Sb]2(=[O])[O][C@H]([C@H](O)CO)[C@H](O)[C@H](C(=O)O)[O]2)[O][C@H]([C@H](O)CO)[C@@H]1O (stereo partly drawn) [stibogluconate] + O=C(Nc1ccccc1)c1cc([N+](=O)[O-])ccc1Cl [GW9662] (first compound 2 µM, partner dose 2 µM)",93.9%,111%,56.7%,145%,92.2%,77.5%,24.3%,67.8%,157%,49.5%,187%,201%,88.1%,58.4%,103%,70.3%
"CN1CCN(c2ccc3nc(-c4c(N)c5c(F)cccc5[nH]c4=O)[nH]c3c2)CC1 [Dovitinib] + c1cc(-c2cnn3cc(-c4ccc(OCCN5CCCCC5)cc4)cnc23)ccn1 [Dorsomorphin] (first compound 0.1 µM, partner dose 0.4 µM)",105%,42.7%,137%,161%,98.3%,37.9%,56.7%,229%,96.9%,52.2%,153%,91.1%,103%,88.6%,82.4%,83.7%
"CC(C)C[C@H](NC(=O)[C@H](Cc1ccccc1)NC(=O)c1cnccn1)B(O)O [Bortezomib] + Cn1cc(/C=C2\C(=O)Nc3cccnc32)c2ccccc21 [GW441756] (first compound 0.001 µM, partner dose 0.4 µM)",517%,27.1%,41.7%,175%,214%,38.5%,268%,87.1%,247%,102%,42.3%,1020%,149%,245%,528%,214%
"Nc1nc(F)nc2c1ncn2[C@@H]1O[C@H](CO)[C@@H](O)[C@@H]1O [fludarabine] + COc1cc2c(Oc3ccc4[nH]c(C)cc4c3F)ncnc2cc1OCCCN1CCCC1 [cediranib] (first compound 0.2 µM, partner dose 0.4 µM)",274%,359%,57%,47.4%,102%,927%,133%,259%,100%,139%,54.8%,111%,94.5%,467%,85.2%,613%
"Nc1nc(F)nc2c1ncn2[C@@H]1O[C@H](CO)[C@@H](O)[C@@H]1O [fludarabine] + COc1cc(N2CCC(N3CCN(C)CC3)CC2)ccc1Nc1ncc(Cl)c(Nc2ccccc2S(=O)(=O)C(C)C)n1 [NVP-TAE684] (first compound 0.2 µM, partner dose 0.08 µM)",73.6%,874%,76.9%,52.4%,346%,512%,458%,154%,55.6%,41.4%,109%,86.1%,294%,815%,108%,320%
"Nc1ncn([C@H]2C[C@H](O)[C@@H](CO)O2)c(=O)n1 [decitabine] + O=C(Nc1ccccc1)c1cc([N+](=O)[O-])ccc1Cl [GW9662] (first compound 0.1 µM, partner dose 2 µM)",87.1%,212%,40.5%,74.2%,50.6%,76.5%,176%,205%,29.6%,116%,136%,52.5%,91.2%,87.3%,83.7%,209%
"CS(=O)(=O)CCNCc1ccc(-c2ccc3ncnc(Nc4ccc(OCc5cccc(F)c5)c(Cl)c4)c3c2)o1 [lapatinib] + Oc1nc(-c2ccc(C(F)(F)F)cc2)nc2c1CSCC2 [XAV939] (first compound 0.8 µM, partner dose 2 µM)",36.5%,125%,116%,142%,67.7%,42.6%,63.1%,89.7%,63%,60%,82.1%,81.8%,97.1%,77%,108%,63%
"CCCS(=O)(=O)Nc1ccc(F)c(C(=O)c2c[nH]c3ncc(Cl)cc23)c1F + CCCCCCCCCCCC1=C(O)C(=O)C=C(O)C1=O [Embelin] (first compound 0.08 µM, partner dose 1.2 µM)",151%,130%,132%,141%,48.4%,63.2%,26.5%,62.7%,86.6%,638%,140%,47.5%,90.8%,92.1%,237%,79.1%
"Cc1cc(Nc2cc(N3CCN(C)CC3)nc(/C=C/c3ccccc3)n2)n[nH]1 + O=C(O)C(=O)Nc1sc2c(c1C(=O)O)CCNC2 [TCS401] (first compound 0.04 µM, partner dose 1.66667 µM)",97.4%,35.6%,30.5%,145%,182%,162%,19.5%,92%,507%,151%,152%,25%,99.9%,88.2%,109%,41.4%
"Nc1nc(F)nc2c1ncn2[C@@H]1O[C@H](CO)[C@@H](O)[C@@H]1O [fludarabine] + CO[C@@H]1[C@H](N(C)C(=O)c2ccccc2)C[C@H]2O[C@]1(C)n1c3ccccc3c3c4c(c5c6ccccc6n2c5c31)C(=O)NC4 [Midostaurin] (first compound 0.2 µM, partner dose 0.08 µM)",64.7%,816%,221%,98.4%,57.8%,598%,5680%,917%,153%,35.6%,28.4%,280%,113%,256%,84.6%,129%

# Full records from above. Values in the order: cleaved PARP positive nuclei fraction [1]	cleaved PARP positive nuclei fraction [2]	cleaved PARP positive nuclei fraction [3]	cleaved PARP positive nuclei fraction [4]	cleaved PARP positive nuclei fraction [5]	cleaved PARP positive nuclei fraction [6]	cleaved PARP positive nuclei fraction [7]	cleaved PARP positive nuclei fraction [8]	cleaved PARP positive nuclei fraction [9]	cleaved PARP positive nuclei fraction [10]	cleaved PARP positive nuclei fraction [11]	cleaved PARP positive nuclei fraction [12]	cleaved PARP positive nuclei fraction [13]	cleaved PARP positive nuclei fraction [14]	cleaved PARP positive nuclei fraction [15]	cleaved PARP positive nuclei fraction [16]
# Nc1ccn([C@@H]2O[C@H](CO)[C@@H](O)C2(F)F)c(=O)n1 [gemcitabine] + NC(=O)Nc1cc(-c2cccc(F)c2)sc1C(=O)N[C@H]1CCCNC1 [AZD7762] (first compound 0.0004 µM, partner dose 0.02 µM) as listed: 187%	58.8%	132%	73.7%	175%	91.9%	53.8%	48.3%	91.6%	87.3%	79%	284%	183%	65.9%	315%	84.3%
# Nc1nc(F)nc2c1ncn2[C@@H]1O[C@H](CO)[C@@H](O)[C@@H]1O [fludarabine] + COc1cc(N2CCC(N3CCN(C)CC3)CC2)ccc1Nc1ncc(Cl)c(Nc2ccccc2S(=O)(=O)C(C)C)n1 [NVP-TAE684] (first compound 0.2 µM, partner dose 0.08 µM) as listed: 73.6%	874%	76.9%	52.4%	346%	512%	458%	154%	55.6%	41.4%	109%	86.1%	294%	815%	108%	320%
